The record followed here is article PMC8079763 (2021).

No constants are given. Whether binding was seen depends on the method and setting. Sequences can lack the tags named with a protein.

The target of the test is T1, GST tagged ecto-basigin (recombinant mouse basigin) (mouse (C57BL/6J)) (UniProt P18572).
T1 sequence: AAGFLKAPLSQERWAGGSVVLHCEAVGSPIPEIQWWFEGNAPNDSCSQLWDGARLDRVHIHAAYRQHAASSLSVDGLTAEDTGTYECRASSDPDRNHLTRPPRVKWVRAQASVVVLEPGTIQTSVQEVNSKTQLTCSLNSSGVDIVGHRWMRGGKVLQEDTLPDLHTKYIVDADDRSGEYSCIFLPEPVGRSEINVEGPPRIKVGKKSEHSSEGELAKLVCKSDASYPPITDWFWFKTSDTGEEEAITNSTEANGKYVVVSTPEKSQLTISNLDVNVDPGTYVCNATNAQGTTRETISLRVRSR
As to the kind of experiment: SPR; Biacore X100; recombinant mouse basigin (GST tagged) immobilised on CM5 chip by amine coupling; PyEBL regions as analytes; HBS-EP+ (10 mM HEPES pH 7.4, 150 mM NaCl, 3 mM EDTA, 0.05% P20); single-cycle kinetics, 1:1 binding model; both purified. In general terms: SPR reads the build-up and loss of mass on a sensor chip optically.

For the substance “recombinant PyEBL R3-5 (G437-C717) (Plasmodium yoelii 17X) (domain or fragment)”, the binding entry is recorded as “no binding (tested: 1000 nM)”.

Consider “recombinant PyEBL R6, the C-terminal Cysteine-rich domain (C717-N788) (Plasmodium yoelii 17X) (domain or fragment)”, for which the binding result is given as “no binding (tested: 1000 nM)”.
